# The whole screen tested about 390,000 compounds, of which about 610 (0.16%) were called active. Inconclusive results, whose numbers are uncertain, are shown with a selection of clear calls. The call rests on the fitted dose curve; in most records, active means well fitted inhibition curve with a large enough effect; inconclusive means small, poorly fitted or top-dose-only effect, or effect the other way, or another doubt; inactive means no such curve, though single readings can be large or run the other way. Potencies of inconclusive entries are doubtful fits and often do not repeat.
# Test: Nrf2 qHTS screen for inhibitors: counterscreen for cytotoxicity
# Settings: A549 ARE-Fluc cells, CellTiter-Fluor viability, 18-24 h; series mostly up to 46 µM
# Method in brief: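 Cytotoxicity counterscreen: CellTiter-Fluor fluorescence was measured in A549 ARE_Fluc cells after 18-24 h of compound exposure in a concentration series. The subsequent BugLite luminescent read reports ARE-luciferase activity.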
# Potency means the concentration at half of the fitted maximal effect.
row,SMILES,Potency
1,CCOC(=O)C1=C(C)n2c(s/c(=C/c3cccc([N+](=O)[O-])c3)c2=O)=NC1c1ccc(O)c(OC)c1 (stereo not given),"inconclusive: 1.3 µM [falling, partial curve, poor fit]"
2,O=C(COc1ccccc1/C=C\c1[nH]c(=O)[nH]c(=O)c1[N+](=O)[O-])Nc1ccccc1,inactive
3,O=C(CSc1nnc(COc2ccc(F)cc2)o1)N1c2ccccc2CCc2ccccc21,inactive
4,CCCCC(=O)Nc1ccc(C)c(S(=O)(=O)N2CCCCCC2)c1,"inconclusive: 20.6 µM [falling, single point]"
5,COCCNS(=O)(=O)c1ccc2c(c1)Cc1cc(S(=O)(=O)NCCOC)ccc1-2,inactive
6,C/C=C(\C)C(=O)OC1[C@H](OC(C)=O)C2(CO)C(CC1(C)C)C1=CCC3C4(C)CCC(O[C@@H]5O[C@H](C(=O)O)[C@@H](O[C@@H]6O[C@H](CO)[C@@H](O)[C@H](O)[C@H]6O)[C@H](O)[C@H]5O[C@H]5O[C@H](CO)[C@@H](O)[C@H](O)[C@H]5O)[C@](C)(CO)C4CCC3(C)[C@]1(C)C[C@H]2O (stereo not given in full),"inconclusive: 25.9 µM [falling, single point]"
7,COC(=O)c1cnc(Oc2ccc(NC(=O)NC(=O)c3c(OC)cccc3OC)cc2)cc1C(F)(F)F,"inconclusive: 0.92 µM [falling, partial curve, poor fit]"
8,Cc1sc2nc(SCC(=O)Nc3c(C)n(C)n(-c4ccccc4)c3=O)n(C)c(=O)c2c1C,inactive
9,Cc1ccc2nc3c(cc(C(=O)NC4CCS(=O)(=O)C4)n3Cc3ccccc3)c(=O)n2c1 (stereo not given),"inconclusive: 10.3 µM [activator, partial curve]"
10,O=C(NC(=S)N(CCCCO)C1CCCCC1)c1sc2ccccc2c1Cl,"inconclusive: 32.6 µM [falling, single point]"
11,CCOc1ccccc1N(CC(=O)N/N=C/c1cc(Br)ccc1OC)S(C)(=O)=O,"inconclusive: 29.1 µM [falling, single point]"
12,COc1ccc(-c2cc(C)no2)cc1S(=O)(=O)N1CCCC(C)C1 (stereo not given),"inconclusive: 23.1 µM [falling, partial curve, poor fit]"
13,Cc1c(C#N)c(O)n(CCO)c(=O)c1N=Nc1ccc(S(N)(=O)=O)cc1,active: 14.6 µM
14,Nc1ccc(SC(F)(F)F)cc1C(=O)c1ccccc1,"inconclusive: 29.1 µM [falling, single point]"
15,O=c1cc(CSc2nnc(Nc3ccccc3F)s2)nc2sccn12,"inconclusive: 23.1 µM [falling, single point]"
16,CCn1c(CNC(=O)COc2ccc(C(C)C)cc2)nnc1SCC(=O)Nc1ccccc1C(C)C,inactive
17,COc1ccc2[nH]c3c4c(ccc3c2c1)C(=O)C=CC4=O,"inconclusive: 18.4 µM [falling, single point]"
18,Oc1ccc(N=Nc2n[nH]c(-c3ccc(Br)cc3)n2)cc1,"inconclusive: 11.6 µM [falling, partial curve, poor fit]"
19,COc1ccc(NC(=O)c2cccn2-c2nnc(N3CCCCC3)s2)c(OC)c1,inactive
20,CCN(CCN(C)C)C(=O)c1ccc2c(c1NCCO)C(=O)c1ccccc1C2=O,"inconclusive: 16.4 µM [falling, single point]"
21,O=C(Nc1ccc(OCC(F)(F)C(F)F)c(C(F)(F)F)c1)c1ccccc1O,"inconclusive: 23.1 µM [falling, single point]"
22,CC(OC(=O)/C(C#N)=C/c1ccc(N(C)C)cc1)C(=O)N(C)Cc1ccccc1 (stereo not given),"inconclusive: 23.1 µM [falling, partial curve]"

row,SMILES,Potency
1,CCOc1ccc2nc(NCCCNC(=O)c3cc(OC)c(OC)c(OC)c3)c(C#N)cc2c1,"inconclusive: 20.6 µM [activator, single point]"
2,Cc1cccc(NC(=O)CSc2nc3ccc(N4C(=O)c5ccccc5C4=O)cc3s2)c1C,"inconclusive: 23.1 µM [falling, single point]"
3,COc1cc(OC)c(NC(=O)CC(C)S(=O)(=O)c2ccc3c(c2)NC(=O)CO3)cc1Cl (stereo not given),inactive
4,Cc1ccccc1Nc1cccc2nonc12,"inconclusive: 20.6 µM [activator, partial curve, poor fit]"
5,Cc1cccc(COCC(Cc2ccccc2)N2CCN(C(=O)c3cccc(Cl)c3)CCC2=O)c1 (stereo not given),"inconclusive: 20.6 µM [falling, partial curve, poor fit]"
6,COC(=O)c1ccccc1NC(=O)C1CC=CCC1C(=O)O (stereo not given),inactive
7,O=C(Cc1ccc(NC(=O)N2CCCCc3ccccc32)cc1)NCc1cccc(Br)c1,inactive
8,Cc1[nH]n(-c2ccccc2)c(=S)c1C=NCCCN=Cc1c(C)[nH]n(-c2ccccc2)c1=S,inactive
9,c1ccc(-c2ccc3c(c2)c2c4n3CCN=C4CCC2)cc1,"inconclusive: 29.1 µM [falling, single point]"
10,O=C(NCCCCc1ccccc1)C1CC(c2cccc(F)c2)=NO1 (stereo not given),inactive
11,CN(CC(=O)Nc1cccc(F)c1)C(=O)c1ccc(S(=O)(=O)N2CCCC2)cc1,inactive
12,COc1ccc(N(C(=O)Cn2nnc(-c3ccc(F)cc3)n2)C(C)C(=O)NC2CCCC2)cc1 (stereo not given),inactive
13,Cc1nn(Cc2ccc(Cl)c(Cl)c2)c(C)c1NC(=O)c1cc(-c2ccc3c(c2)OCO3)on1,"inconclusive: 29.1 µM [falling, single point]"
14,CCn1cc(S(=O)(=O)CC(=O)Nc2ccc(C)cc2)c2ccccc21,"inconclusive: 7.31 µM [activator, partial curve, poor fit]"
15,COc1ccc(-n2nc3c(=O)[nH][nH]c3cc2=O)cc1,"inconclusive: 16.4 µM [falling, partial curve, poor fit]"
16,N#CC(C#N)=NNc1ccc(S(=O)(=O)N2CCCCC2)cc1,"inconclusive: 20.6 µM [falling, partial curve]"
17,S=c1[nH]nc(CSc2nc3ccccc3s2)n1Cc1ccccc1,inactive
18,O=C(Nc1ccc(Oc2cccc3ccccc23)cc1)c1ccco1,"inconclusive: 23.1 µM [falling, partial curve, poor fit]"
19,CC1N(C)c2cc(NC(=O)c3ccco3)ccc2C1(C)C (stereo not given),"inconclusive: 18.4 µM [falling, partial curve, poor fit]"
20,COc1cc(Nc2ccc(C(=O)O)cc2[N+](=O)[O-])cc(OC)c1,"inconclusive: 23.1 µM [falling, partial curve, poor fit]"
21,O=C(c1cnn2c(-c3ccccc3)cc(-c3ccccc3)nc12)N1CCN(Cc2ccccc2)CC1,"inconclusive: 25.9 µM [falling, partial curve, poor fit]"
22,CCCn1cnc2cc(NCc3ccc(Br)cc3)ccc21,"inconclusive: 5.8 µM [activator, partial curve, poor fit]"

# 18 entries from above, set out differently.
row	SMILES	Potency
4	Cc1ccccc1Nc1cccc2nonc12	inconclusive: 20.6 µM [activator, partial curve, poor fit]
5	Cc1cccc(COCC(Cc2ccccc2)N2CCN(C(=O)c3cccc(Cl)c3)CCC2=O)c1 (stereo not given)	inconclusive: 20.6 µM [falling, partial curve, poor fit]
6	COC(=O)c1ccccc1NC(=O)C1CC=CCC1C(=O)O (stereo not given)	inactive
7	O=C(Cc1ccc(NC(=O)N2CCCCc3ccccc32)cc1)NCc1cccc(Br)c1	inactive
8	Cc1[nH]n(-c2ccccc2)c(=S)c1C=NCCCN=Cc1c(C)[nH]n(-c2ccccc2)c1=S	inactive
9	c1ccc(-c2ccc3c(c2)c2c4n3CCN=C4CCC2)cc1	inconclusive: 29.1 µM [falling, single point]
10	O=C(NCCCCc1ccccc1)C1CC(c2cccc(F)c2)=NO1 (stereo not given)	inactive
11	CN(CC(=O)Nc1cccc(F)c1)C(=O)c1ccc(S(=O)(=O)N2CCCC2)cc1	inactive
12	COc1ccc(N(C(=O)Cn2nnc(-c3ccc(F)cc3)n2)C(C)C(=O)NC2CCCC2)cc1 (stereo not given)	inactive
13	Cc1nn(Cc2ccc(Cl)c(Cl)c2)c(C)c1NC(=O)c1cc(-c2ccc3c(c2)OCO3)on1	inconclusive: 29.1 µM [falling, single point]
14	CCn1cc(S(=O)(=O)CC(=O)Nc2ccc(C)cc2)c2ccccc21	inconclusive: 7.31 µM [activator, partial curve, poor fit]
15	COc1ccc(-n2nc3c(=O)[nH][nH]c3cc2=O)cc1	inconclusive: 16.4 µM [falling, partial curve, poor fit]
16	N#CC(C#N)=NNc1ccc(S(=O)(=O)N2CCCCC2)cc1	inconclusive: 20.6 µM [falling, partial curve]
17	S=c1[nH]nc(CSc2nc3ccccc3s2)n1Cc1ccccc1	inactive
18	O=C(Nc1ccc(Oc2cccc3ccccc23)cc1)c1ccco1	inconclusive: 23.1 µM [falling, partial curve, poor fit]
19	CC1N(C)c2cc(NC(=O)c3ccco3)ccc2C1(C)C (stereo not given)	inconclusive: 18.4 µM [falling, partial curve, poor fit]
20	COc1cc(Nc2ccc(C(=O)O)cc2[N+](=O)[O-])cc(OC)c1	inconclusive: 23.1 µM [falling, partial curve, poor fit]
21	O=C(c1cnn2c(-c3ccccc3)cc(-c3ccccc3)nc12)N1CCN(Cc2ccccc2)CC1	inconclusive: 25.9 µM [falling, partial curve, poor fit]

# (listing goes on)

row,SMILES,Potency
1,CCN(CC)c1ccc(N=Nc2nn(C)c(C)c2[N+](=O)[O-])cc1,active: 20.6 µM
2,O=C1C=C(c2cccs2)C[C@H](c2ccccc2)[C@H]1n1nnc([N+](=O)[O-])n1,"inconclusive: 20.6 µM [falling, single point]"
3,COc1ccc(C(=O)c2c3ccc(OC)cc3[n+]([O-])n2Cc2ccc(C(N)=O)cc2)cc1,"inconclusive: 11.6 µM [falling, partial curve, poor fit]"
4,CCN1CCC(NC(=O)Nc2ccccc2C(=O)OC)CC1,"inconclusive: 29.1 µM [activator, single point]"
5,CCC1CCCCN1C(=O)c1cc(COc2ccc(-n3cncn3)cc2)on1 (stereo not given),inactive
6,COc1ccc(S(=O)(=O)NCC2CCC(C(=O)O)CC2)cc1 (stereo not given),inactive
7,Cn1nc(C(F)(F)F)c2cc(C(=O)Nc3ccc(C(F)(F)F)cc3)sc21,"inconclusive: 29.1 µM [falling, single point]"
8,CCOC(=O)c1c(C)[nH]c(C(=O)COC(=O)c2ccco2)c1C,inactive
9,Cc1ccc(NC(=O)c2nc(S(=O)(=O)Cc3ccc(F)cc3)ncc2Cl)cc1C,"inconclusive: 23.1 µM [falling, single point]"
10,CCOC(=O)c1ccc(-n2c(O)c(/C=N/NC(=O)C3COc4ccccc4O3)c3ccccc3c2=O)cc1 (stereo not given),"inconclusive: 25.9 µM [falling, single point]"
11,Clc1ccccc1-c1nc(-c2ccccc2)n[nH]1,inactive
12,C=CCNC(=O)CN(c1ccc(OC)cc1OC)S(C)(=O)=O,inactive
13,COc1ccc(S(=O)(=O)N2CCC(n3c(C)nc4cccnc43)CC2)cc1Cl,"inconclusive: 32.6 µM [activator, single point]"
14,CC1Cc2cc(/C=C3/SC(N4CCC(C(N)=O)CC4)=NC3=O)ccc2O1 (stereo not given),inactive
15,CCN(CC)S(=O)(=O)c1ccc(NC(=O)c2c(C)oc3ncnc(N4CCCCC4)c23)cc1,inactive
16,Cc1ccc(NC(C)C(=O)N/N=C/c2ccc([N+](=O)[O-])s2)cc1 (stereo not given),"inconclusive: 23.1 µM [falling, partial curve, poor fit]"
17,Cc1ccccc1N=Nc1c(C)[nH]n(C(N)=S)c1=O,"inconclusive: 32.6 µM [falling, partial curve, poor fit]"
18,COc1ccc(Cl)cc1N(C)C(=O)CCc1nc(-c2ccc(C)cc2)no1,inactive
19,COc1ccc(S(=O)(=O)Nc2cc3c4c(oc3c3ccccc23)CCCC4=O)cc1,"inconclusive: 9.2 µM [falling, partial curve]"
20,COc1cc2cc(C(N)=O)c(N)nc2cc1OC,"inconclusive: 25.9 µM [activator, partial curve, poor fit]"
21,Cc1ccc(NC(=O)c2nc[nH]c2C(=O)NC2CCN(C(=O)OC(C)(C)C)CC2)cc1,inactive
